From ChEMBL document CHEMBL3988442, “University of Dundee, Small-Polar-MMV Screening Library” (2021).

A: 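Assay on Mycobacterium tuberculosis, filed only as a heat shock assay from Cornell; the read-out is not stated. The concentration is filed as 10 mM, unlikely as a test dose, so the dose is not known. Direction is inferred from retests: higher values go with stronger inhibition. About 69,000 compounds were tested under these conditions; 1.4% (about 930) showed 50% or more at least once.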
B: 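Whole-cell assay for inhibitors of Mycobacterium tuberculosis growth, labelled Cornell in the record; the read-out is not stated. The concentration is filed as 10 mM, unlikely as a test dose, so the dose is not known. Higher means stronger inhibition (inferred from two other growth screens of the library). Of about 53,000 compounds tested this way, about 900 (1.7%) reached 50% or more in at least one test.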

The filed quantity is “Percent Effect” (%). How 0% and 100% were set is not recorded. Most values in the screen are low, and negative values occur. Compounds were drawn at random from those tested, without regard to their results.

structure: CN1C[C@@H](O)[C@]2(CCN(C(=O)OCc3ccccc3)C2)S1(=O)=O
A: 5.577
B: 6.985

structure: Cc1ccc(-c2nc(CCNCc3ccncc3)co2)cc1
A: 19.23
B: 55.33

structure: Fc1ccc(CN2CCCC2Cn2cccn2)c2ncccc12 (centres undefined)
A: 25.55
B: 1.929

structure: COc1ccccc1C(=O)NS(=O)(=O)c1cccc(C#N)c1
A: -0.8845
B: 9.681

structure: CCCc1nc(C)c(C(=O)NCCNc2ncccn2)s1
A: -1.662
B: -23.45

structure: Cc1csc(CNc2cnn(CC(C)C)c2)n1
A: -5.215
B: 13.07

structure: Cn1cc(C[C@H]2[C@H](O)CCN2Cc2ccc3c(c2)OCO3)cn1
A: 13.56
B: -65.55

structure: c1cc2c(cc1-c1noc3c1CN(C1CCC1)CC3)OCO2
A: 17.74
B: 7.3

structure: O=C(NCCO)C1(CC2CC(c3ccc(F)cc3)=NO2)CCOCC1 (centres undefined)
A: -19.49
B: -6.083

structure: CC(C)OCCC(=O)N(C)CCCc1cc(-c2ccccc2)no1
A: 15.48
B: 6.549

structure: Cc1nc(CN2CCC3(CC2)C(=O)N(C)CCN3C)cs1.O=C(O)C(F)(F)F.O=C(O)C(F)(F)F.O=C(O)C(F)(F)F
A: 13.37
B: 10.64

structure: CSCCNC(=O)C1CCC(=O)N(C2CCCC2)C1 (centres undefined)
A: -11.97

structure: CCc1nnc2n1CCN(C(=O)C(C)Oc1ccc(C#N)cc1)C2 (centres undefined)
A: -9.946
B: -1.273

structure: Cc1occc1CNC(=O)C1(C)CCCN1C(=O)c1ccccc1 (centres undefined)
A: 13.8
B: -18.94

structure: CCN1CCC(CNC(=O)NCc2cc(-c3ccc(C)cc3)no2)C1 (centres undefined)
A: 12.75
B: 28.36

structure: CN(CC(=O)N1CCCC(n2ccnc2)C1)c1cnccn1 (centres undefined)
A: -13.52
B: -6.621

structure: Cc1noc(C)c1CNC(=O)Nc1ccc(N2CCSCC2)cc1
A: 12.46
B: 104.5

structure: CN(C)Cc1cc(-c2nccn2CCn2cccn2)ccc1O
A: -47.36
B: 19.82

structure: Cc1ncsc1C(=O)NC1CCN(Cc2cccnc2)CC1
A: 9.633
B: 2.915

structure: c1csc(-c2noc(CNCCn3cccn3)n2)c1
A: -3.991
B: -4.941

structure: Cc1cc(CNC(=O)NCc2cccs2)ccc1S(C)(=O)=O
A: -1.159
B: 17.67

structure: [H][C@]12CC[C@]([H])(CN(Cc3ccccc3C#N)C1)N(CC1CC1)C2=O
A: -5.409

structure: O=C(NC1CC1)c1cc(C(F)(F)F)cc(C(=O)NC2CC2)n1
A: -17.95
B: -3.64

structure: O=C1NCCCc2[nH]c(C3CCN(C(=O)C4CC4)CC3)nc21
A: 7.015
B: -47.24

structure: CC(C)N1CCC2(CCCN(Cc3ccc(F)cc3)C2=O)C1 (centres undefined)
A: 6.488
B: 18.41

structure: CCc1cnc(C)nc1NCCC(=O)N1CCC(C)CC1
A: -1.394
B: 3.287

structure: CCCc1n[nH]c(C2CN(CCCS(=O)(=O)N(C)C)CCO2)n1 (centres undefined)
A: 2.457
B: -26.9

structure: CCOC(=O)N1CCN(C(=O)C2CC(=O)N(c3ccccc3Br)C2)CC1 (centres undefined)
A: 22.64
B: 15.59

structure: Cc1cc(S(C)(=O)=O)c(C)c(S(=O)(=O)NC2CCCC2)c1
A: -39.05
B: 7.573

structure: Cc1ccc(NC(=O)N(CCO)Cc2ccsc2)cc1
A: -10.79
B: 15.94

structure: O=S(=O)(C1CC1)N1CCc2ncc(Cn3cncn3)n2CC1
A: -8.153
B: -3.829

structure: Cc1noc(-c2ccc(N3CCCC(C(=O)O)C3)nc2)n1 (centres undefined)
A: 3.105
B: 1.331

structure: Cc1noc(C2CCN(C(=O)CN(C)c3ccc(Cl)cn3)CC2)n1
A: 8.736
B: 5.953

structure: CN(CCOc1cccc(S(C)(=O)=O)c1)CC(F)F
A: 1.858
B: 3.016

structure: NC(=O)c1nc(COc2ccc3c(c2)OCO3)no1
A: 1.197

3 of the entries, repeated:

{"structure": "Fc1ccc(CN2CCCC2Cn2cccn2)c2ncccc12", "stereo": "centres undefined", "A": 25.55, "B": 1.929}
{"structure": "CCN1CCC(CNC(=O)NCc2cc(-c3ccc(C)cc3)no2)C1", "stereo": "centres undefined", "A": 12.75, "B": 28.36}
{"structure": "c1cc2c(cc1-c1noc3c1CN(C1CCC1)CC3)OCO2", "A": 17.74, "B": 7.3}